# Measured values: PubChem BioAssay AID1347075 (National Center for Advancing Translational Sciences (NCATS), 2019)
# The campaign covered roughly 400,000 compounds. About 5,500 (1.4%) were called active. Inconclusive means that the source gave no clear call. Such entries were picked first, then a sample of the others. Calls follow the shape of the dose curve; as a rule, active = well fitted cell-killing curve with a large enough effect; inconclusive = small, poorly fitted or top-dose-only effect, or effect the other way; inactive = flat fitted curve, though single readings scatter. Where the call is inconclusive, the potency comes from a doubtful curve fit.
# Assay: qHTS assay for MDR1-selective chemotherapeutics: Primary screen using the parental adenocarcinoma cell KB-3-1; also: nearly all actives have a fitted effect of over 60% in size
# Details: KB-3-1 viability, CellTiter-Glo ATP luminescence, 72 h; activity change, negative = cytotoxic: at 46.1 µM (top of the series)
# Method in brief: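 KB-3-1 parental drug-naive adenocarcinoma cells in DMEM/10% FBS, incubated 72 h at 37 C with pin-transferred compounds across a concentration series. Viability by CellTiter-Glo luminescence; concentration-response curves fitted after normalization.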
# % is scaled to controls: 0 for no effect and ±100 for the full control effect; potency is read from the fitted curve at half-maximal effect.
Structure (SMILES),"activity change, negative = cytotoxic",Potency
C=CCn1c(=O)[nH]c2cc(C(=O)N3CCN(c4ccc(C(C)=O)cc4)CC3)ccc2c1=O,inactive: -9.87%,–
O=[N+]([O-])CC(c1ccc(F)cc1)c1c[nH]c2ccccc12 (stereo unspecified),–,"inconclusive: 23.1 µM [cytotoxic, single point]"
Cc1ccc2c(c1)N(C(=O)CCC(=O)N1CCN(c3ccccn3)CC1)CC(C)O2 (stereo unspecified),inactive: -3.56%,–
c1ccc(Cn2c[n+](Cc3ccccc3)c3ccccc32)cc1,–,active: 23.1 µM
Cc1cccc(CSc2nc(N)c(C#N)c(-c3cccs3)c2C#N)c1,–,"inconclusive: 35.5 µM [cytotoxic, single point]"
Cc1ccc(S(=O)(=O)N2CCCC(C(=O)NC3CCCC3)C2)cc1Cl (stereo unspecified),–,"inconclusive: 20.6 µM [cytotoxic, single point]"
COc1ccc(CN2C(=O)C(C)Nc3ncnc(N4CCc5ccccc5C4)c32)cc1 (stereo unspecified),–,active: 2.31 µM
O=C(Nc1cccc2ccccc12)N1CCN(Cc2ccccc2)CC1,–,"inconclusive: 29.1 µM [cytotoxic, single point]"
Cc1cccc(C)c1-n1nnnc1C1(Nc2ccccc2)CCCCC1,–,"inconclusive: 29.1 µM [cytotoxic, single point]"
O=C(NC1CC1)C1=C[C@H](c2ccccc2)C[C@H](OCc2ccc(CO)cc2)O1,inactive: -12.7%,–
CCC(CC)C(=O)Nc1nc(-c2ccc3c(c2)CCN3C(=O)C2CC2)c(C)s1,–,"inconclusive: 18.4 µM [cytotoxic, single point]"
Cc1ccc(NC(=O)COC(=O)CNC(=O)c2cccs2)cc1S(=O)(=O)N1CCOCC1,inactive: -14.5%,–
COc1ccc(N2C(=O)c3ccccc3NC2c2ccc(OC)c(Cn3nnc4ccccc43)c2)cc1 (stereo unspecified),–,"inconclusive: 7.31 µM [rising, partial curve, poor fit]"
CCc1ccc(NC(=O)C2CCN(c3ncnc4c3nc3n4CCCCC3)CC2)cc1,inactive: -7.41%,–
CC(C)c1ccc(-n2nnnc2SCc2nc(N)nc(N)n2)cc1,inactive: 0.0302%,–
O=C(CCN1CCC(c2ccc(Cl)s2)=N1)c1ccc(Cl)s1,inactive: 3.98%,–
CCC(=O)Nc1nc(C)c(-c2csc(Nc3ccccn3)n2)s1,–,"inconclusive: 13 µM [cytotoxic, partial curve, poor fit]"
O=C(O)c1ccc(N/N=C/c2ccc(-c3ccc(Cl)cc3Cl)o2)cc1,–,active: 23.1 µM
CCOc1ccc(NS(=O)(=O)c2ccc(C(=O)N3CCC3)cc2)cc1,–,"inconclusive: 13 µM [cytotoxic, partial curve]"
CC(=O)N1CCc2cc(S(=O)(=O)N3CCN(c4ccc(C)cc4)C(C)C3)ccc21 (stereo unspecified),inactive: -13%,–
O=c1[nH]c2cc3ccccc3cc2nc1C(F)(F)F,inactive: 4.63%,–

# Reformatted: entries from further up
Structure (SMILES)	activity change, negative = cytotoxic	Potency
O=C(Nc1cccc2ccccc12)N1CCN(Cc2ccccc2)CC1	–	inconclusive: 29.1 µM [cytotoxic, single point]
Cc1cccc(C)c1-n1nnnc1C1(Nc2ccccc2)CCCCC1	–	inconclusive: 29.1 µM [cytotoxic, single point]
